The target in the test is RFP-Hrs (UniProt O14964). The test is described as follows: co-IP; lysates of N2a cells cotransfected with RFP-Hrs and KIF13A- or KIF13B-FRB-Myc; Dynabeads coupled to anti-mCherry antibodies, 4°C, 2 h; lysis buffer 50 mM Tris-Base, 150 mM NaCl, 1% Triton X-100, 0.5% deoxycholic acid; blot probed with Myc and mCherry antibodies; in one panel the cells were treated with control or high K+ Tyrodes solution for 2 h.

The chains behind the UniProt entries cited, without tags or fusion partners.
UniProt O14964: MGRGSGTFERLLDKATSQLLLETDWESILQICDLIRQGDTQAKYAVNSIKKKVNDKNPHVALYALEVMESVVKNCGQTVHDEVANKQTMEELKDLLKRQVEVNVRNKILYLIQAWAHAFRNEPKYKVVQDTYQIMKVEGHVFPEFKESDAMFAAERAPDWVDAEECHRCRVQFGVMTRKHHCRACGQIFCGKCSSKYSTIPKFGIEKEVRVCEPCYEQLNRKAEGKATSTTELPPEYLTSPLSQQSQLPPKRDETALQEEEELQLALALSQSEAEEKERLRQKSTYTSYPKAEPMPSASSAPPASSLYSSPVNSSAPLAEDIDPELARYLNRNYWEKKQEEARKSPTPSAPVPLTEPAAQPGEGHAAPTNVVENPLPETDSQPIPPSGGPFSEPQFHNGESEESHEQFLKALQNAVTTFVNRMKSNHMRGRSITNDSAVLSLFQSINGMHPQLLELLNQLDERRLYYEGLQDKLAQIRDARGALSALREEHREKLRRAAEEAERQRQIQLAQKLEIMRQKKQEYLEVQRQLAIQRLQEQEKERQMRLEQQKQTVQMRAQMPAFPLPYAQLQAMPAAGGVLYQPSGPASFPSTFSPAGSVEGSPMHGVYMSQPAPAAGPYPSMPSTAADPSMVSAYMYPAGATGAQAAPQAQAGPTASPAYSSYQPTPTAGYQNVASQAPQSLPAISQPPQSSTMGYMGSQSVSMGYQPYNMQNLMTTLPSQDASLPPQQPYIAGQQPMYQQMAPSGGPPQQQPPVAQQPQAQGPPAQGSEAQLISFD

These are yes or no findings as the source states them, for the method shown. In cells and extracts the contact can be indirect. Some binding calls cover weakened binding; strength is not graded here. Tags and fused reporters may be left off the sequences shown.

B1: KIF13A-FRB-Myc (pBa-FRB-3myc-KIF13A tail 361–1749) (domain or fragment, UniProt Q9EQW7 361-1749)
chain: DPNAKVIRELREEVEKLREQLSKAEAMKPPELKEKLEESEKLIKELTVTWEEKLRKTEAIAQERQRQLESMGISLETSGIKVGDDKCYLVNLNADPALNELLVYYLKDHTRVGADTSQDIQLFGIGIQPEHCEIDIAADGDITLTPKENARSCVNGTLVCNTTQLWHGDRILWGNNHFFRINLPKRKRRDWLKDFERETSSAEHDLDAASEASSEPDYNYEFAQMEVIMKTLNSNDPVQNVVQVLEKQYLEEKRTALEEQRLMYERELEQLRQQLSPERQPPSSASDRLAYSSQTAQQKVTQWAEERDELFRQSLAKLREQLVKANTLVREANFLAEEMSKLTDYQVTLQIPAANLSANRKRGAIVSEPAIQARRKGKGTQVWTIEKLENKLIDMRDLYQEWKENVPEAKRLYGKRGDPFYEAQENHNLIGVANVFLECLFCDVKLQYAVPIISQQGEVAGRLHVEVTRITGTIPERMAEDDSSENSSESGSLEVVDSSGEVIHRVKKLTCRVIIKEATGLPISLSNFVFCQYTFWDQCESTVAAPVVDPDVPSPQSKDAQYTVTFSHCKDYVVTVTEEFLEFISDGALAIEVWGHRCAGNGSPIWEVDSLHAKTRTLHDRWNEVTRRIEVWISILELNELGDYAAVELHQAKDVNTGGVFQLRQGHSRRVQVTVKPVQHSGTLPLMVEAILSVSIGCVTARSTKLQRGLDSYQEEDLNCVRERWSDALIKRREYLDEQIKKVSNKKEKTEDDMEREARLVEQWVGLTEERNAVLVPAPGSGIPGAPADWVPPPGMETHIPVLFLDLNADDLSANEQLVGPHASGVNSILPKEHGSQFFYLPIIKHSDDEVSATASWDSSVHDSLHLNRVTPQNERIYLIVKTTVQLSHPAAMELVLRKRIAANIYNKQSFTQSLKRRISLINICYSCGVTYEIVSNIPKATEEIEDRETLALLAARSENEGTLDGETYIEKYTRGVLQVENILSLERLRQAVTVKEALSTKARHIRRSLSTPNVHNVSSSRPDLSGFDEDDKGWPENQLDVSDYSSSYQDVACYGTLPRDSPRRSKEGCPSENPHALTVSPFKAFSPQPPKFFKPLMPVKEEHKKRLALEARPLLSQEDSEEEENELEALSRKLMLTQPYVPVEFADFSVYNASLENREWSSSKADLTDSRALEKAVSRSPTTSSLTSGYFSHSASNATLSDMAVPSSDSSDQLAVSTKEVECAEPPGPSLAPDVRRASNQELTEVGRGSGKDETIAVPLEENSALPKGTPSPQSIPEESSRMPCRTASCSELDVGPSKDGHQAREFCPGEVTIEHTTNILEDHSFTEFMGVSDGKDFDGLADCSVGEPSRRRALTNETDHKGIPERPPDADRLHPKIENDQEATATR
On to B1, for which the binding result is “binds”.

Source of the values: PMC9152131.
